In this test the target is T1, vinculin (mouse (endogenous in eEND cells and MDMVECs)) (UniProt Q64727).
T1 sequence: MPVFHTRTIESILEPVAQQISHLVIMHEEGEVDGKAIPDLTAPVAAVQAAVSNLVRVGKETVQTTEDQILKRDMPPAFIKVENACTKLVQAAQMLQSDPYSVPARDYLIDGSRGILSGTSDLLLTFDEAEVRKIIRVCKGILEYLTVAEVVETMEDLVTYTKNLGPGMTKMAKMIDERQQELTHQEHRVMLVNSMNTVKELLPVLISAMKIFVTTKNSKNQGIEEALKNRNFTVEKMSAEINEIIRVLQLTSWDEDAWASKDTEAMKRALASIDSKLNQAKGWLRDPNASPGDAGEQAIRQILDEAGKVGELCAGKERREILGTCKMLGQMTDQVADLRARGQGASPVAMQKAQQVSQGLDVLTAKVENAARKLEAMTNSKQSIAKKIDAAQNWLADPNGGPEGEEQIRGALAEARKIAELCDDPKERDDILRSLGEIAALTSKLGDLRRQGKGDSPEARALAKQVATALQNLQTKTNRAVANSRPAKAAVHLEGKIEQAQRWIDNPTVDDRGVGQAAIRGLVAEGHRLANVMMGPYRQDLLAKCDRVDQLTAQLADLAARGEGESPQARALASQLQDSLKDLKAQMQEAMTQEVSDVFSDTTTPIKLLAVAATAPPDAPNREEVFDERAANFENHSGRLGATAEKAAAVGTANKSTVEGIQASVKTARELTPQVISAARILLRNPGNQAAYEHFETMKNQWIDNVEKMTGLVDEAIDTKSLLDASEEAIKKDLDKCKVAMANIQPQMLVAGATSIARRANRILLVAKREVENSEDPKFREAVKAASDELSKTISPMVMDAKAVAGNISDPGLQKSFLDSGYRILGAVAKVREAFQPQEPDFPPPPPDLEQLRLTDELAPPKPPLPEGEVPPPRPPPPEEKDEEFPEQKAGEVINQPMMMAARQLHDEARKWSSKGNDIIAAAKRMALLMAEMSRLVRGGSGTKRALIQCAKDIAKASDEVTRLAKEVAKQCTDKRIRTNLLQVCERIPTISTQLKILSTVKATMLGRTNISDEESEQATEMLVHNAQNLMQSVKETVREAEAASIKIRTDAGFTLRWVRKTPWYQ
Description: co-IP; anti-vinculin antibodies on Dynabeads, lysates of eEND cells or MDMVECs (1% Nonidet P-40, 25 mM Tris-HCl pH 7.4, 100 mM NaCl, 10 mM MgCl2, 10% glycerol), 1 h at 4°C, five washes; immunoblot for VE-cadherin. A general note: A western blot detects proteins with antibodies after separation by electrophoresis.

Results are given in words; binding and its absence hold for the method and conditions named. Binding seen in cells or lysates may run through a third protein. Some results given as binding are weak or reduced against the parent protein; the word gives no strength.

B1: VE-cadherin (protein, UniProt P55284 46-784)
chain: DWIWNQMHIDEEKNESLPHYVGKIKSNVNRQNAKYVLQGEFAGKIFGVDANTGNVLAYERLDREKVSEYFLTALIVDKNTNKNLEQPSSFTVKVHDINDNWPVFSHQVFNASVPEMSAIGTSVIRVTAVDADDPTVAGHATVLYQIVKGNEYFSIDNSGLIFTKIKNLDREKQAEYKIVVETQDALGLRGESGTATVMIRLEDINDNFPVFTQSTYTFSVPEDIRVGKPLGFLTVVDPDEPQNRMTKYSIMQGEYRDTFTIETDPKRNEGIIKPTKSLDYEVIQQYTFYIEATDPTIRYEYLSSTSGKNKAMVTINVLDVDEPPVFQRHFYHFKLPENQKKPLIGTVVAKDPDKAQRSIGYSIRKTSDRGQFFRITKQGNIYNEKELDRETYAWYNLTVEANELDSRGNPVGKESIVQVYIEVLDENDNPPEFAQPYEPKVCENAAQGKLVVQISATDKDVVPVNPKFKFALKNEDSNFTLINNHDNTANITVKYGQFNREHAKFHYLPVLISDNGVPSLTGTSTLTVGVCKCNEQGEFTFCEEMAAQAGVSIQALVAIFLCILTITVITLLIILRRRIRKQAHAHSKSALEIHEQLVTYDEEGGGEMDTTSYDVSVLNSVRGGSTKPLRSTMDARPAVYTQVQKPPRLAPGLHGGPREMATMIDVKKEEADNDGGGPPYDTLHIYGYEGAESIAESLSSLSTNSSDSDIDYDFLNDWGPRFKMLAELYGSDPQEELII
In the case of B1, the binding entry was “binds weakly”.

The record behind these values is PMC8729784.
